# Measured values published in the supplement of paper PMC9254222.
# Where a name gives a salt, the structure may show the parent alone. The full ranking holds about 1,100 compounds; the median of “Wnt reporter firefly/Renilla luciferase ratio relative to plate median” is about 1.1, and the highest 2% start at about 1.6. This is a selection; strong and weak results do not stand in their true shares.
# Tested on: HEK293T (UBE3A T485A transfected, BAR Wnt reporter)
# Assay: Wnt reporter firefly/Renilla luciferase ratio relative to plate median (fold (linear ratio)); higher = more Wnt/beta-catenin reporter activation
# Conditions: 24 h
# Outline: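 HEK293T cells were grown in DMEM with 10% FBS at 37°C and 5% CO2, at 4500 cells/well in white 384-well plates. They were transfected with a BAR firefly luciferase Wnt reporter, TK-Renilla and an expression plasmid using Fugene 6. Four hours later, robots dosed the chemicals at 0.01–100 uM for 24 h, followed by Dual-Glo luciferase readout. Wnt activity (firefly/Renilla ratio) and cell health (raw Renilla) were median-centred per plate, averaged over four biological replicates.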
SMILES,Wnt reporter firefly/Renilla luciferase ratio (concentration: 0.1 uM),Wnt reporter firefly/Renilla luciferase ratio (concentration: 1 uM),Wnt reporter firefly/Renilla luciferase ratio (concentration: 10 uM),Wnt reporter firefly/Renilla luciferase ratio (concentration: 100 uM),Wnt reporter firefly/Renilla luciferase ratio (concentration: 0.01 uM)
CC[C@H]1CC[C@H](NCc2cc3c(cc2OC)[C@H]2C[C@H]2C(=O)N3C)[C@H](c2ccccc2)N1,1.1,1.22,,,
Cc1cccc2ccccc12 [1-Methylnaphthalene],1.12,0.916,1.2,1.41,
C[Si]1(C)O[Si](C)(C)O[Si](C)(C)O[Si](C)(C)O1 [Octamethylcyclotetrasiloxane],1.23,1,0.917,1.14,
CCCCCCCCO [1-Octanol],0.948,0.949,1.11,1.09,
NC(=O)NO [Hydroxyurea],1.04,0.964,1.14,0.637,
CCCN(C1CCN(C(=O)C2CCNCC2)CC1)[C@@H]1CCc2ccc(OC)cc2C1,1.01,0.953,1.1,,
"CC(O)CC(C)(C)O (stereo not given) [2-Methyl-2,4-pentanediol]",1.13,0.976,1.04,1.56,
CCOC(=O)c1ccc(O)cc1 [Ethylparaben],0.886,0.966,0.941,0.734,
CCCCCCOC(=O)CC(CC(=O)OCCCCCC)(OC(=O)CCC)C(=O)OCCCCCC [Butyryl trihexyl citrate],1.17,1.18,1.15,1.14,
COC(=O)CSc1cc(/N=c2\sc(=O)n3n2CCCC3)c(F)cc1Cl [Fluthiacet-methyl],1.09,0.963,1.11,1.21,0.983
NCc1cccc(C2CCN(C(=O)c3ccc(C#Cc4ccccc4F)o3)CC2)c1,1.02,1.01,1.02,0.974,
CCCCCOC(=O)COc1cc(N2C(=O)C3=C(CCCC3)C2=O)c(F)cc1Cl [Flumiclorac-pentyl],1.12,0.89,0.996,1.23,0.988
CCCCOC(=O)CCCCC(=O)OCCCC [Dibutyl hexanedioate],0.981,0.969,1,1.08,
CCc1cc(C2=C(C(=O)[O-])N(c3ccccc3C(F)(F)F)S(=O)(=O)c3ccccc32)cc2c1OCO2.[K+] [Fandosentan potassium salt],1.07,0.904,1.18,0.534,
"CCCOC(=O)c1ccc(C(=O)OCCC)nc1 [Dipropyl pyridine-2,5-dicarboxylate]",1.2,1.08,1.34,1.2,0.767
CCOc1ccc2c(c1)C(C)=CC(C)(C)N2 [Ethoxyquin],1.13,0.931,1.4,,
CO[C@@H]1COCC[C@@H]1[NH2+][C@@H]1CC[C@@](C(=O)N2CCc3ncc(C(F)(F)F)cc3C2)(C(C)C)C1.O=C([O-])CCC(=O)O,1.25,0.958,1.31,0.91,
CC(C)(C)c1cc(O)ccc1O [tert-Butylhydroquinone],1.14,1.24,0.885,0.804,
CCCN(CCC)c1c([N+](=O)[O-])cc(C(F)(F)F)c(N)c1[N+](=O)[O-] [Prodiamine],1.47,1.2,1.2,1.29,1.16
CCOC(=O)C(C)Oc1ccc(Oc2cnc3cc(Cl)ccc3n2)cc1 (stereo not given) [Quizalofop-ethyl],1.1,1.03,1.09,0.981,0.779
CCCC(=O)OCCC(C)C [Isopentyl butyrate],1.01,0.909,0.985,0.828,

# Entries shown so far that contain nitrogen in an aromatic ring:
SMILES,Wnt reporter firefly/Renilla luciferase ratio (concentration: 0.1 uM),Wnt reporter firefly/Renilla luciferase ratio (concentration: 1 uM),Wnt reporter firefly/Renilla luciferase ratio (concentration: 10 uM),Wnt reporter firefly/Renilla luciferase ratio (concentration: 100 uM),Wnt reporter firefly/Renilla luciferase ratio (concentration: 0.01 uM)
COC(=O)CSc1cc(/N=c2\sc(=O)n3n2CCCC3)c(F)cc1Cl [Fluthiacet-methyl],1.09,0.963,1.11,1.21,0.983
"CCCOC(=O)c1ccc(C(=O)OCCC)nc1 [Dipropyl pyridine-2,5-dicarboxylate]",1.2,1.08,1.34,1.2,0.767
CO[C@@H]1COCC[C@@H]1[NH2+][C@@H]1CC[C@@](C(=O)N2CCc3ncc(C(F)(F)F)cc3C2)(C(C)C)C1.O=C([O-])CCC(=O)O,1.25,0.958,1.31,0.91,
CCOC(=O)C(C)Oc1ccc(Oc2cnc3cc(Cl)ccc3n2)cc1 (stereo not given) [Quizalofop-ethyl],1.1,1.03,1.09,0.981,0.779

# Carrying on.

SMILES,Wnt reporter firefly/Renilla luciferase ratio (concentration: 0.1 uM),Wnt reporter firefly/Renilla luciferase ratio (concentration: 1 uM),Wnt reporter firefly/Renilla luciferase ratio (concentration: 10 uM),Wnt reporter firefly/Renilla luciferase ratio (concentration: 100 uM),Wnt reporter firefly/Renilla luciferase ratio (concentration: 0.01 uM)
C[C@]12C=CC(=O)C=C1CC[C@H]1[C@@H]3C[C@@H](O)[C@](O)(C(=O)CO)[C@@]3(C)C[C@H](O)[C@@]12F [Triamcinolone],1.07,1.12,0.965,0.79,
"FC(F)(F)C(F)(F)C(F)(F)C(F)(F)C(F)(F)C(F)(F)CCI [1H,1H,2H,2H-Perfluorooctyl iodide]",1.09,1.07,0.938,1,
COc1c(Cl)ccc(Cl)c1C(=O)O [Dicamba],0.917,1.08,1.16,1.15,0.872
CC(CO)OC(C)CO.CC(O)COCC(C)O (stereo not given) [Dipropylene glycol],0.913,1.2,0.923,1.33,
CCCCCCCCOC(=O)c1cc(O)c(O)c(O)c1 [Octyl gallate],1.25,1.3,0.702,0.614,
CC(C)(C)c1cc(/C=C2\SC(=N)NC2=O)cc(C(C)(C)C)c1O.CS(=O)(=O)O [Darbufelone mesylate],1.11,0.907,1.28,,
CCOC(=O)CC(CC(=O)OCC)(OC(C)=O)C(=O)OCC [Acetyltriethyl citrate],1.03,1.2,1.3,1.43,
CCCCCc1ccc(N)cc1 [4-Pentylaniline],0.846,0.875,0.933,1.07,
COc1cccc([C@H](O)C2CCN(CCc3ccc(F)cc3)CC2)c1OC [Volinanserin],1.14,0.889,1.34,0.324,
OCC(CO)(CO)CO [Pentaerythritol],1.18,1.51,1.13,1.27,
NC(=O)N(O)[C@@H]1COc2cc(OCc3ccccc3)ccc21,1.01,0.888,1.11,0.997,
O=C(O)CC(O)(CC(=O)O)C(=O)O [Citric acid],1.1,1.18,1.16,1.48,
"CC1(C)C(=O)N(Br)C(=O)N1Br [1,3-Dibromo-5,5-dimethylhydantoin]",0.79,1.01,1.06,1.25,
CCc1nn(C2CCCCC2)c2cc([C@]3(C#N)CC[C@@H](C(=O)O)CC3)ccc12,1.31,0.964,1.09,0.908,
CCCCCCCCCC(=O)O [Decanoic acid],1.43,1.04,1.39,0.794,
C=CCCCCCCCCCCCC [1-Tetradecene],1.2,1.18,1.09,1.19,
CCCCC(CC)CO (stereo not given) [2-Ethyl-1-hexanol],,,1.62,,
CCCCCCOCCO [2-(Hexyloxy)ethanol],1.23,0.979,1.06,1.13,
CCCCCCCC(=O)OC [Methyl octanoate],0.881,0.847,1.22,1.31,
O=c1[nH]c2cc([N+](=O)[O-])c([N+](=O)[O-])cc2[nH]c1=O,0.916,0.997,0.882,1.48,0.945
CC1=C(C)S(=O)(=O)CCS1(=O)=O [Dimethipin],1.2,1.06,0.884,0.706,

SMILES,Wnt reporter firefly/Renilla luciferase ratio (concentration: 0.1 uM),Wnt reporter firefly/Renilla luciferase ratio (concentration: 1 uM),Wnt reporter firefly/Renilla luciferase ratio (concentration: 10 uM),Wnt reporter firefly/Renilla luciferase ratio (concentration: 100 uM),Wnt reporter firefly/Renilla luciferase ratio (concentration: 0.01 uM)
CN(C)c1ccc(N=NS(=O)(=O)[O-])cc1.[Na+] [Fenaminosulf],1.24,0.87,1.16,0.855,
Cn1cc[nH]c1=S [Methimazole],0.227,0.986,0.426,0.499,
Cn1cnc([N+](=O)[O-])c1Sc1ncnc2nc[nH]c12 [Azathioprine],1.26,0.941,0.761,,
Cc1ccc(O)cc1 [p-Cresol],0.988,1.1,1.02,1.39,
CC(=O)S[C@H](C(=O)N[C@H]1Cc2ccccc2[C@H]2CCC[C@@H](C(=O)O)N2C1=O)C(C)C [Ilepatril],0.975,0.925,0.894,0.899,
C[C@]12CC[C@@H]3c4ccc(O)cc4CC[C@H]3[C@@H]1CCC2=O [Estrone],1.06,1.03,0.835,0.517,
OCCNCCO [Diethanolamine],1.17,0.992,1.4,2.49,
CCOC(=O)O[C@H](C)OC(=O)c1ccc2c(c1)cc(C(=O)NC1CCN(C(C)C)CC1)n2Cc1cc(-c2ccc(Cl)s2)on1.Cl,1.02,1.13,1.14,,
Cn1c(=O)c2[nH]cnc2n(C)c1=O [Theophylline],1.11,0.908,1.01,1.11,
CCOC(=O)C(C)(C)Oc1ccc(Cl)cc1 [Clofibrate],1.38,1.01,1.31,1.08,
"CC(C)CCCCCCOC(=O)C1CCCCC1C(=O)OCCCCCCC(C)C (stereo not given) [Diisononyl cyclohexane-1,2-dicarboxylate]",1.08,1.19,1.04,1.33,
NC(=O)N/N=C/c1ccc([N+](=O)[O-])o1 [Nitrofurazone],1.22,1.02,0.506,0.32,
Cc1ccc(N)cc1O [5-Amino-2-methylphenol],1.05,0.771,0.809,0.519,
"O=C1NC(=O)C(c2ccccc2)(c2ccccc2)N1 [5,5-Diphenylhydantoin]",0.925,1.28,1.02,0.658,
CCCCCCCCCCCCCCO [1-Tetradecanol],1.02,1.19,1.25,1.38,
CC(=O)OC1C(=O)C2(C)C(O)CC3OCC3(OC(C)=O)C2C(OC(=O)c2ccccc2)C2(O)CC(OC(=O)C(O)C(NC(=O)c3ccccc3)c3ccccc3)C(C)=C1C2(C)C (stereo not given) [Taxol],0.822,0.575,0.409,1.98,1.29
"Cc1c2ccccc2c(C)c2c1ccc1ccccc12 [7,12-Dimethylbenz(a)anthracene]",1.03,0.839,0.496,,
CC[C@H](C)C(=O)O[C@H]1C[C@@H](C)C=C2C=C[C@H](C)[C@H](CC[C@@H]3C[C@@H](O)CC(=O)O3)[C@H]21 [Lovastatin],1.04,1.21,1.03,0.64,
CC(C)(C)CC(C)(C)c1ccc(O)c(-n2nc3ccccc3n2)c1 [Octrizole],1.01,1.02,1.08,1.29,
CCCCOCCOCCOCc1cc2c(cc1CCC)OCO2 [Piperonyl butoxide],1.02,1.17,1.2,1.23,0.694
COc1cc(-c2nc(NC(=O)c3cc4cc(C)cc(C)c4n3CC(=O)O)sc2CCC2CCCCC2)c(OC)cc1Cl.O=C(O)C(F)(F)F,1.1,0.944,0.988,1.4,
